Measured values as given in patent US20200369770A1 (NANJING LEGEND BIOTECH, published 2020).
These are yes or no findings as the source states them, for the method shown. Some entries that bind do so weakly or less than the wild type. Tags and fused reporters may be left off the sequences shown.

Biological target: T1, His-tagged LAG-3 protein (Homo sapiens (Human)) (UniProt P18627)
T1 sequence: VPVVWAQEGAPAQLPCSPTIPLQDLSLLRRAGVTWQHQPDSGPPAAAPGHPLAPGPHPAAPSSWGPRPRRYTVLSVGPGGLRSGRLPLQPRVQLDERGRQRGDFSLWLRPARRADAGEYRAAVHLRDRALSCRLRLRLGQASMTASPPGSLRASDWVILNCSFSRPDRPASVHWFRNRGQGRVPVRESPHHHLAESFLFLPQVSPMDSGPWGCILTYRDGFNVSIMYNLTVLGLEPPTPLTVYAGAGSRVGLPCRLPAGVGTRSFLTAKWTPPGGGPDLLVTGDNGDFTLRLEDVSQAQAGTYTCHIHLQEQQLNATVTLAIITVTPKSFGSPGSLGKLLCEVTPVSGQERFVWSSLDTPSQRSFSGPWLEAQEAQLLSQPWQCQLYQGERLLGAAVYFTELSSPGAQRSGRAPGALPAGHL
Experiment: SPR (BIACORE T200); binder immobilized on the chip, His-tagged LAG-3 as analyte

- binding: binds
B1: VHH2 HCAb (antibody, human IgG4 S228P, V domains shown)
VH: EVQLVESGGGLVQPGGSLRLSCAASGYTVSSYCMGWFRQAPGKGREGVSAIDSDGSVSYADSVKGRFTISKDNSKNTLYLQMNSLRAEDTAVYFCAADLCWVDQDQGEYNTWGQGTLVTVSS
notes: positive control for LAG-3; also called anti-LAG-3 VHH2 HCAb
